Test results published in PubChem BioAssay AID248 (DTP/NCI, 2004).
The list is a part of this screen's results and no random one: it is rich in T/C values a quarter to a half above the control, in often repeated tests (any T/C) and in doses without a T/C. Further doses and runs are listed elsewhere. T/C: endpoint of the treated group in % of that of the vehicle group. Some doses have a count of surviving animals in place of a T/C: the source holds a T/C of zero for them, seemingly a mark for toxic or unscored doses. Some doses without a T/C left all or most animals alive at the check, yet need not have been tolerated: the source hardly ever lists a survival T/C far under the control, and the zero likely stands for such cases as well. Counts of survivors are from the toxicity check (mostly the fifth day) where no day follows; animals may have died later. Schedules are NCI's codes, taken here to give the interval after Q, in days (D) or hours (H), and the number of doses after X. Some doses were run more than once; the values are given in rising order. Some schedule codes hold Z or #, which are not explained here. For survival time, this PubChem deposit counts one and a half times the control or more as active, and values a quarter to a half above the control carry no call in these data; other NCI protocols may use other cut-offs. Some T/C values are followed by the survivors on the day toxicity was checked, most often the fifth; without a count, all were alive then.

System: L1210 leukemia ip in BDF1 mice, survival T/C
Assay: NCI In Vivo Anticancer Drug Screen. Data for tumor model L1210 Leukemia (intraperitoneal) in B6D2F1 (BDF1) mice
Details: T/C endpoint: mean survival time, higher T/C = longer survival
[1] = dose: 400.0 mg/kg/injection, schedule: Q04DX002 (ip), vehicle: Klucel (hydroxypropylcellulose) (HPC)
[2] = dose: 150.0 mg/kg/injection, schedule: Q01DX001 (ip), vehicle: saline
[3] = dose: 300.0 mg/kg/injection, schedule: Q01DX001 (ip), vehicle: saline
[4] = dose: 400.0 mg/kg/injection, schedule: Q01DX001 (ip), vehicle: saline
[5] = dose: 50.0 mg/kg/injection, schedule: Q01DX009 (ip), vehicle: other
[6] = dose: 200.0 mg/kg/injection, schedule: Q01DX009 (ip), vehicle: saline with Tween-80
[7] = dose: 400.0 mg/kg/injection, schedule: Q01DX009 (ip), vehicle: saline with Tween-80
[8] = dose: 400.0 mg/kg/injection, schedule: Q04DX003 (ip), vehicle: saline with Tween-80
[9] = dose: 400.0 mg/kg/injection, schedule: Q04DX003 (ip), vehicle: Klucel (hydroxypropylcellulose) (HPC)
[10] = dose: 100.0 mg/kg/injection, schedule: Q01DX009 (ip), vehicle: saline with Tween-80

CCC(=O)c1ccc(N2CCCCC2)cc1
survivor count [1]: 2 of 3

O=C(CCl)NC1=C(Cl)C(=O)c2ccccc2C1=O
survivor count [2]: 2 of 6 | survivor count [3]: 3 of 6

CC1CCC2(O)C3(C)CC(=O)OC2(C1O)C1(O)C(C)C(O)(C(C)C)C(O)C31O (configuration not stated)
survivor count (dose: 10.0 mg/kg/injection, schedule: Q01DX001 (ip), vehicle: saline): 3 of 6 | survivor count (dose: 20.0 mg/kg/injection, schedule: Q01DX001 (ip), vehicle: saline): 0 of 6 | survivor count (dose: 40.0 mg/kg/injection, schedule: Q01DX001 (ip), vehicle: saline): 0 of 6 | survivor count (dose: 80.0 mg/kg/injection, schedule: Q01DX001 (ip), vehicle: saline): 0 of 6 | survivor count (dose: 100.0 mg/kg/injection, schedule: Q01DX001 (ip), vehicle: saline): 0 of 6 | survivor count (dose: 200.0 mg/kg/injection, schedule: Q01DX001 (ip), vehicle: saline): 0 of 6 | survivor count [4]: 0 of 6

CCOP(=O)(C(O)C(Cl)(Cl)Cl)C(O)C(Cl)(Cl)Cl (configuration not stated)
survivor count (dose: 300.0 mg/kg/injection, schedule: Q04DX003 (ip), vehicle: saline with Tween-80): 6 of 6

NC(=O)NNC(O)(C(F)(F)F)C(F)(F)F
survivor count (dose: 400.0 mg/kg/injection, schedule: Q01DX001 (ip), vehicle: carboxymethylcellulose (CMC)): 0 of 4

O=[N+]([O-])c1cc2c(cc1Br)nc(Cl)c1cc(Br)ccc12
survivor count (dose: 400.0 mg/kg/injection, schedule: Q01DX009 (ip), vehicle: Klucel (hydroxypropylcellulose) (HPC)): 3 of 6

Cc1ccc(S(=O)(=O)N/N=C/C(=O)O)cc1
T/C (dose: 12.5 mg/kg/injection, schedule: Q01DX009 (ip), vehicle: water): 130 % of control | T/C (dose: 22.0 mg/kg/injection, schedule: Q01DX009 (ip), vehicle: other): 127 % of control | T/C (dose: 25.0 mg/kg/injection, schedule: Q01DX009 (ip), vehicle: water): 136 % of control | T/C (dose: 33.0 mg/kg/injection, schedule: Q01DX009 (ip), vehicle: other): 138 % of control | T/C [5]: 144 % of control | T/C (dose: 60.0 mg/kg/injection, schedule: Q01DX009 (ip), vehicle: saline): 149 % of control | T/C (dose: 75.0 mg/kg/injection, schedule: Q01DX001 (ip), vehicle: other): 135 % of control | T/C (dose: 75.0 mg/kg/injection, schedule: Q01DX009 (ip), vehicle: other): 147 % of control | T/C (dose: 100.0 mg/kg/injection, schedule: Q04DX003 (ip), vehicle: saline with Tween-80): 127 % of control | T/C (dose: 150.0 mg/kg/injection, schedule: Q01DX001 (ip), vehicle: other): 132 % of control | T/C [2]: 144 % of control [5 of 6 alive] | T/C [6]: 127 % of control | survivor count (dose: 200.0 mg/kg/injection, schedule: Q01DX009 (ip), vehicle: water): 6 of 6 | T/C (dose: 200.0 mg/kg/injection, schedule: Q04DX003 (ip), vehicle: saline with Tween-80): 127 % of control | T/C (dose: 300.0 mg/kg/injection, schedule: Q01DX001 (ip), vehicle: other): 128 % of control | T/C [3]: 134 % of control | T/C [7]: 130 and 138 % of control | T/C [8]: 143 % of control | T/C (dose: 600.0 mg/kg/injection, schedule: Q04DX003 (ip), vehicle: saline with Tween-80): 127 % of control

NC(N)=N/N=C/C(O)CO (configuration not stated)
T/C (dose: 60.0 mg/kg/injection, schedule: Q01DX Z (ip), vehicle: methylcellulose (MC)): 142 % of control | T/C (dose: 120.0 mg/kg/injection, schedule: Q01DX Z (ip), vehicle: methylcellulose (MC)): 139 % of control | T/C (dose: 120.0 mg/kg/injection, schedule: Q01DX Z (oral), vehicle: methylcellulose (MC)): 138 % of control | survivor count (dose: 480.0 mg/kg/injection, schedule: Q01DX Z (oral), vehicle: methylcellulose (MC)): 3 of 6

CC(C)(C)N(CSc1ccc(Cl)cc1)CSc1ccc(Cl)cc1
survivor count [4]: 3 of 6

CO[As](OC)c1ccc(N=Nc2ccc(N(C)C)cc2)cc1
survivor count (dose: 12.5 mg/kg/injection, schedule: Q04DX003 (ip), vehicle: Klucel (hydroxypropylcellulose) (HPC)): 0 of 3 | survivor count (dose: 25.0 mg/kg/injection, schedule: Q04DX003 (ip), vehicle: Klucel (hydroxypropylcellulose) (HPC)): 0 of 3 | survivor count (dose: 50.0 mg/kg/injection, schedule: Q04DX003 (ip), vehicle: Klucel (hydroxypropylcellulose) (HPC)): 1 of 3 | survivor count (dose: 100.0 mg/kg/injection, schedule: Q04DX003 (ip), vehicle: Klucel (hydroxypropylcellulose) (HPC)): 4 of 6 | survivor count (dose: 200.0 mg/kg/injection, schedule: Q04DX003 (ip), vehicle: Klucel (hydroxypropylcellulose) (HPC)): 5 of 6 | survivor count [9]: 2 of 6

CCCCNc1ccc(C(=O)OCCNC2CCCCC2)cc1
survivor count [3]: 0 of 6

CC(=O)NNC(=O)c1ccccc1
T/C [7]: 127 % of control | survivor count (dose: 400.0 mg/kg/injection, schedule: Q01DX009 (ip), vehicle: saline): 4 of 6

Cc1ccc(NC(=O)CI)cc1
survivor count (dose: 25.0 mg/kg/injection, schedule: Q04DX002 (ip), vehicle: other): 3 of 3 | survivor count (dose: 100.0 mg/kg/injection, schedule: Q04DX002 (ip), vehicle: other): 0 of 3

CCCCNC(=O)/C(=C\c1ccccc1)NC(C)=O
survivor count (dose: 25.0 mg/kg/injection, schedule: Q01DX009 (ip), vehicle: DMSO): 4 of 6 | survivor count (dose: 25.0 mg/kg/injection, schedule: Q04DX003 (ip), vehicle: DMSO): 6 of 6 | survivor count (dose: 50.0 mg/kg/injection, schedule: Q04DX003 (ip), vehicle: DMSO): 1 of 6 | survivor count (dose: 100.0 mg/kg/injection, schedule: Q04DX003 (ip), vehicle: DMSO): 0 of 6 | survivor count (dose: 200.0 mg/kg/injection, schedule: Q04DX003 (ip), vehicle: DMSO): 0 of 6 | survivor count (dose: 400.0 mg/kg/injection, schedule: Q04DX003 (ip), vehicle: DMSO): 0 of 6

C[N+](C)(CC(=O)Nc1cc(C(F)(F)F)cc(C(F)(F)F)c1)CC(=O)Nc1ccc(Cl)c(C(F)(F)F)c1
survivor count (dose: 50.0 mg/kg/injection, schedule: Q04DX002 (ip), vehicle: saline with Tween-80): 1 of 3 | survivor count (dose: 100.0 mg/kg/injection, schedule: Q04DX002 (ip), vehicle: saline with Tween-80): 0 of 3

CCCOCCC(c1ccccc1)(c1ccccc1)c1ccccc1
survivor count (dose: 50.0 mg/kg/injection, schedule: Q01DX009 (ip), vehicle: saline with Tween-80): 3 of 3 | survivor count [10]: 3 of 3

CCC1(C(C)Br)OC2=C(CC(C#N)(C#N)C(C#N)(C#N)C2)O1 (configuration not stated)
survivor count (dose: 25.0 mg/kg/injection, schedule: Q01DX009 (ip), vehicle: saline): 3 of 6 | survivor count [5]: 2 of 6 | survivor count (dose: 75.0 mg/kg/injection, schedule: Q01DX009 (ip), vehicle: saline): 2 of 6 | survivor count [2]: 3 of 6 | survivor count [3]: 2 of 6

CCN(CC)C(=O)c1cccc(COc2ccc(N3C(N)=NC(N)=NC3(C)C)cc2Cl)c1
survivor count [10]: 2 of 6

ClCCOc1ccccc1
survivor count [4]: 1 of 4

COc1ccc(CC(=S)N2CCOCC2)cc1
survivor count [1]: 3 of 3

CC(=O)Nc1ccc(NC(=S)Nc2ccc(NC(C)=O)cc2)cc1
survivor count (dose: 200.0 mg/kg/injection, schedule: Q01DX009 (ip), vehicle: Klucel (hydroxypropylcellulose) (HPC)): 0 of 6 | survivor count [9]: 0 of 6

CCOC(=O)c1cnc(SCc2ccccc2)nc1Nc1ccccc1Cl
survivor count [8]: 6 of 6

CCCCCCCCCCCCCC[n+]1cccc(C#N)c1
survivor count (dose: 75.0 mg/kg/injection, schedule: Q01DX001 (ip), vehicle: saline): 1 of 6 | survivor count [2]: 1 of 6 | survivor count [3]: 1 of 6

CC(=O)c1ccc(OC(=O)Nc2ccc(Cl)cc2)cc1
T/C [10]: 86 [5 of 6 alive], 103 [4 of 6 alive], 112 % of control [2 of 3 alive] | survivor count [10]: 2 of 3 | survivor count [6]: 5 of 6 and 3 of 3 | survivor count [7]: 3 of 6 and 3 of 3 | survivor count [8]: 3 of 6
